Data as given in article PMC5963807.
These are yes or no findings as the source states them, for the method shown. Binding can be weak; no strength is given. For some assays here: Binding seen in cells or lysates may run through a third protein. For some assays here: Tags and fused reporters may be left off the sequences shown.

Tests used:
[1] = target: T1, AtSyp81-cYFP (Arabidopsis) (UniProt P59277); assay: split reporter; BiFC in N. benthamiana, proteins expressed via agroinfiltration, confocal microscopy; p33 with AtSyp81: followed by inoculation with TBSV, images 3 days later
T1 sequence: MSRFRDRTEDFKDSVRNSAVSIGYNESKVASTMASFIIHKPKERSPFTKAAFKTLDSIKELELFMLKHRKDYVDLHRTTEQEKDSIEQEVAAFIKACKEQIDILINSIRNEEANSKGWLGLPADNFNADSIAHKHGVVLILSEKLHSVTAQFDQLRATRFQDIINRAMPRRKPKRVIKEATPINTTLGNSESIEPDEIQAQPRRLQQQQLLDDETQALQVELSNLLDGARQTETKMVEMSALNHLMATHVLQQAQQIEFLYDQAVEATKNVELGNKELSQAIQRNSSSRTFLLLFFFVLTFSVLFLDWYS

[2] = target: T2, Ufe1p (split-ubiquitin bait) (yeast (S. cerevisiae)) (UniProt P41834); assay: two-hybrid; split-ubiquitin-based membrane yeast two-hybrid assay (MYTH); bait co-expressed with NubG-tagged prey in yeast; empty prey vector (NubG) as negative control
T2 sequence: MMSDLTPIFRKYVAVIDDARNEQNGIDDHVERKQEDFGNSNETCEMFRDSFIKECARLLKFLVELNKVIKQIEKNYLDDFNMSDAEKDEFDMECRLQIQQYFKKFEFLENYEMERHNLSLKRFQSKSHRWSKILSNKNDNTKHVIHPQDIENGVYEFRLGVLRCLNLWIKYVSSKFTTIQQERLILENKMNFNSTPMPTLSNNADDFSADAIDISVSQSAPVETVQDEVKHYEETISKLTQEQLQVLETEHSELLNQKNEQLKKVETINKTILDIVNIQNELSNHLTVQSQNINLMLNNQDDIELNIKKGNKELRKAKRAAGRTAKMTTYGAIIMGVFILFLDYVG

Substance	binding [1]	binding [2]
nYFP-AtUse1 (Arabidopsis (by the prefix At))	binds	–
CIRV p36 replication protein (tested against the bait Ufe1p) (carnation Italian ringspot virus)	–	binds
